{
  "source": "the supplement of paper PMC6414424",
  "note": "± gives the standard deviation of the averaged measurements. This is one part of the list.",
  "data": [
    {"system": "APPdp1-6 iPSC-derived neurons", "experiment": "pThr231Tau/total Tau ratio Z-score vs DMSO vehicle wells; higher = more pThr231Tau relative to total Tau", "conditions": "5 µM; treatment time 5 days", "values": [
      {"smiles": "CN(C)CCOC(=O)COc1ccc(Cl)cc1", "note": "[Prestw-763]", "pThr231Tau/total Tau ratio Z-score": "0.151 ± 0.35"},
      {"smiles": "CC(=O)Nc1ccc(O)cc1", "note": "[Prestw-868]", "pThr231Tau/total Tau ratio Z-score": "1.25 ± 0.71"},
      {"smiles": "Cc1ccccc1N1C(=O)c2cc(S(N)(=O)=O)c(Cl)cc2NC1C", "note": "(stereo not drawn) [Prestw-112]", "pThr231Tau/total Tau ratio Z-score": "2.69 ± 1.1"},
      {"smiles": "Cc1cc(-n2c(=O)[nH]c(=O)n(C)c2=O)ccc1Oc1ccc(SC(F)(F)F)cc1", "note": "[Prestw-1195]", "pThr231Tau/total Tau ratio Z-score": "-0.547 ± 0.48"},
      {"smiles": "C=CC1=C(C(=O)O)N2C(=O)[C@@H](NC(=O)/C(=N\\OCC(=O)O)c3csc(N)n3)[C@H]2SC1", "note": "[Prestw-462]", "pThr231Tau/total Tau ratio Z-score": "1.28 ± 0.42"},
      {"smiles": "OCCOCCN1CCN(C(c2ccccc2)c2ccc(Cl)cc2)CC1", "note": "(stereo not drawn)", "pThr231Tau/total Tau ratio Z-score": "-0.489 ± 0.24"},
      {"smiles": "OCCOCCN1CCN(C(c2ccccc2)c2ccc(Cl)cc2)CC1", "note": "(stereo not drawn) [Prestw-133]", "pThr231Tau/total Tau ratio Z-score": "-0.591 ± 0.078"},
      {"smiles": "C[C@]12CC[C@@H]3c4ccc(O)cc4CC[C@H]3[C@@H]1C[C@@H](O)[C@@H]2O", "note": "[Prestw-1096]", "pThr231Tau/total Tau ratio Z-score": "0.062 ± 0.32"},
      {"smiles": "CN(C)CCCO[C@@H]1[C@H]2OC(C)(C)O[C@H]2O[C@@H]1[C@H](O)CO", "note": "[Prestw-845]", "pThr231Tau/total Tau ratio Z-score": "0.24 ± 1.1"},
      {"smiles": "CC[N+](CC)(CC)CCC(O)(c1ccccc1)C1CCCCC1", "note": "(stereo not drawn) [Prestw-1042]", "pThr231Tau/total Tau ratio Z-score": "-1 ± 0.11"},
      {"smiles": "Cc1noc(NS(=O)(=O)c2ccc(N)cc2)c1C", "note": "[Prestw-334]", "pThr231Tau/total Tau ratio Z-score": "0.722 ± 1.4"},
      {"smiles": "CCc1cccc2c3c([nH]c12)C(CC)(CC(=O)O)OCC3", "note": "(stereo not drawn) [Prestw-231]", "pThr231Tau/total Tau ratio Z-score": "-0.609 ± 0.46"},
      {"smiles": "CCCCC(=O)O[C@]1(C(=O)CO)CC[C@H]2[C@@H]3CCC4=CC(=O)CC[C@]4(C)[C@H]3[C@@H](O)C[C@@]21C", "note": "[HYDROCORTISONE VALERATE, antiinflammatory, glucocorticoid]", "pThr231Tau/total Tau ratio Z-score": "1.57 ± 1.9"},
      {"smiles": "CC(Oc1c(Cl)cccc1Cl)C1=NCCN1", "note": "(stereo not drawn) [Prestw-1430]", "pThr231Tau/total Tau ratio Z-score": "0.145 ± 0.29"},
      {"smiles": "CC1=C(CC(=O)O)c2cc(F)ccc2/C1=C\\c1ccc([S+](C)[O-])cc1", "note": "(stereo not drawn) [Prestw-73]", "pThr231Tau/total Tau ratio Z-score": "1.24 ± 0.055"},
      {"smiles": "CN(C)CC/C=C1\\c2ccccc2COc2ccccc21", "note": "[Prestw-263]", "pThr231Tau/total Tau ratio Z-score": "-0.198 ± 1.2"},
      {"smiles": "CO/N=C(\\C(=O)N[C@@H]1C(=O)N2C(C(=O)O)=C(C[N+]3(C)CCCC3)CS[C@H]12)c1csc(N)n1", "note": "[Prestw-1118]", "pThr231Tau/total Tau ratio Z-score": "-0.664 ± 1.1"},
      {"smiles": "CCOC(=O)[C@H](CCc1ccccc1)N[C@@H](C)C(=O)N1CCC[C@H]1C(=O)O", "note": "[Prestw-314]", "pThr231Tau/total Tau ratio Z-score": "2.5 ± 3.5"},
      {"smiles": "Cn1nnnc1SCC1=C(C(=O)O)N2C(=O)[C@@H](NC(=O)[C@H](OC=O)c3ccccc3)[C@H]2SC1", "note": "[CEFAMANDOLE NAFATE    Therap cat: antimicrobial]", "pThr231Tau/total Tau ratio Z-score": "1.83 ± 2.2"},
      {"smiles": "CO[C@H]1C[C@H](O[C@H]2[C@H](C)[C@@H](O[C@@H]3O[C@H](C)C[C@H](N(C)C)[C@H]3OC(C)=O)[C@@H](C)C[C@@]3(CO3)C(=O)[C@H](C)[C@@H](OC(C)=O)[C@@H](C)[C@@H](C)OC(=O)[C@@H]2C)O[C@@H](C)[C@@H]1OC(C)=O", "note": "[Prestw-36]", "pThr231Tau/total Tau ratio Z-score": "0.582 ± 0.1"},
      {"smiles": "COc1ccc(-c2ccc(=N)n(CCCC(=O)O)n2)cc1", "note": "[Prestw-443]", "pThr231Tau/total Tau ratio Z-score": "0.747 ± 0.9"},
      {"smiles": "Cc1cc(C(=O)NNCc2ccccc2)no1", "note": "[Prestw-795]", "pThr231Tau/total Tau ratio Z-score": "0.585 ± 1"},
      {"smiles": "O=C(O)C1CSCN1", "note": "(stereo not drawn)", "pThr231Tau/total Tau ratio Z-score": "-0.656 ± 0.88"},
      {"smiles": "NCC1CCC(C(=O)O)CC1", "note": "(stereo not drawn) [Prestw-171]", "pThr231Tau/total Tau ratio Z-score": "0.643 ± 0.23"},
      {"smiles": "CCCCCCCCCCC[C@@H](C[C@@H]1OC(=O)[C@H]1CCCCCC)OC(=O)[C@H](CC(C)C)NC=O", "note": "[ORLISTAT, reversible lipase inhibitor, antiobesity]", "pThr231Tau/total Tau ratio Z-score": "-0.213 ± 0.082"},
      {"smiles": "Cn1c(=O)c2c(ncn2CC(=O)O)n(C)c1=O", "note": "[Prestw-1507]", "pThr231Tau/total Tau ratio Z-score": "-0.36 ± 0.34"},
      {"smiles": "O=C1O[C@H](CO)[C@@H](O)[C@H](O)[C@H]1O", "note": "[GLUCONOLACTONE    Therap cat: chelating agent]", "pThr231Tau/total Tau ratio Z-score": "1.98 ± 1.8"},
      {"smiles": "CN(C)CC/C=C1\\c2ccccc2CSc2ccccc21", "note": "[Prestw-488]", "pThr231Tau/total Tau ratio Z-score": "0.388 ± 0.1"},
      {"smiles": "CC(=O)NO", "pThr231Tau/total Tau ratio Z-score": "0.493 ± 1.3"},
      {"smiles": "CC(C)(Oc1ccc(Cl)cc1)C(=O)O", "note": "[Prestw-783]", "pThr231Tau/total Tau ratio Z-score": "0.944 ± 0.41"},
      {"smiles": "CN1CCCN=C1COC(=O)C(O)(c1ccccc1)C1CCCCC1", "note": "(stereo not drawn)", "pThr231Tau/total Tau ratio Z-score": "-0.475 ± 0.68"},
      {"smiles": "Oc1ccc(Cl)c2cccnc12", "note": "[CLOXYQUIN    Therap cat:  Antibacterial; antifungal]", "pThr231Tau/total Tau ratio Z-score": "-0.512 ± 0.38"},
      {"smiles": "CC(C)(Sc1cc(C(C)(C)C)c(O)c(C(C)(C)C)c1)Sc1cc(C(C)(C)C)c(O)c(C(C)(C)C)c1", "note": "[Prestw-384]", "pThr231Tau/total Tau ratio Z-score": "0.0524 ± 0.75"},
      {"smiles": "CN1CCC(=C2c3ccccc3CC(=O)c3sccc32)CC1", "note": "[Prestw-371]", "pThr231Tau/total Tau ratio Z-score": "-0.93 ± 0.58"},
      {"smiles": "CN1CCCC(CC2c3ccccc3Sc3ccccc32)C1", "note": "(stereo not drawn) [Prestw-491]", "pThr231Tau/total Tau ratio Z-score": "-1.65 ± 0.077"},
      {"smiles": "COc1ccccc1N1CCN(CC(O)COc2cccc3ccccc23)CC1", "note": "(stereo not drawn) [Prestw-975]", "pThr231Tau/total Tau ratio Z-score": "0.171 ± 1.5"},
      {"smiles": "CCN1C(=O)NC(c2ccccc2)C1=O", "note": "(stereo not drawn) [Prestw-696]", "pThr231Tau/total Tau ratio Z-score": "0.93 ± 0.19"},
      {"smiles": "CCCN(CCC)C(=O)C(CCC(=O)O)NC(=O)c1ccccc1", "note": "(stereo not drawn) [Prestw-240]", "pThr231Tau/total Tau ratio Z-score": "-0.374 ± 1.5"},
      {"smiles": "COc1ccc2c(c1)N(C[C@H](C)CN(C)C)c1ccccc1S2", "note": "[Prestw-797]", "pThr231Tau/total Tau ratio Z-score": "-0.74 ± 0.8"},
      {"smiles": "N#CC(c1ccc(Cl)cc1)c1c(Cl)cc(-n2ncc(=O)[nH]c2=O)cc1Cl", "note": "(stereo not drawn) [Prestw-1394]", "pThr231Tau/total Tau ratio Z-score": "-0.711 ± 0.18"},
      {"smiles": "COc1cc(OC)c(C(=O)CCCN2CCCC2)c(OC)c1", "note": "[Prestw-426]", "pThr231Tau/total Tau ratio Z-score": "-0.723 ± 0.51"},
      {"smiles": "CN(C)c1ccc(O)c2c1C[C@H]1C[C@H]3[C@H](N(C)C)C(=O)C(C(N)=O)=C(O)[C@@]3(O)C(=O)C1=C2O", "note": "[Prestw-315]", "pThr231Tau/total Tau ratio Z-score": "-0.598 ± 0.094"},
      {"smiles": "CN1CCc2cccc3c2[C@H]1Cc1ccc(O)c(O)c1-3", "note": "[Prestw-101]", "pThr231Tau/total Tau ratio Z-score": "0.322 ± 0.11"},
      {"smiles": "CCC(Cc1c(I)cc(I)c(N)c1I)C(=O)O", "note": "(stereo not drawn) [Prestw-1052]", "pThr231Tau/total Tau ratio Z-score": "1.84 ± 1.8"},
      {"smiles": "CCC(NC(C)C)C(O)c1ccc(O)c(O)c1", "note": "(stereo not drawn) [Prestw-749]", "pThr231Tau/total Tau ratio Z-score": "1.13 ± 0.83"},
      {"smiles": "C[C@]12CC[C@@H]3c4ccc(O)cc4CC[C@H]3[C@@H]1CC[C@@H]2OC(=O)CCC1CCCC1", "note": "[ESTRADIOL CYPIONATE    Therap cat:  Estrogen]", "pThr231Tau/total Tau ratio Z-score": "0.192 ± 0.72"},
      {"smiles": "C[C@@H]1[C@H](O)[C@@H](C)/C=C/C=C/C=C/C=C/C=C/C=C/C=C/[C@H](O[C@@H]2O[C@H](C)[C@@H](O)[C@H](N)[C@@H]2O)C[C@@H]2O[C@](O)(C[C@@H](O)C[C@@H](O)[C@H](O)CC[C@@H](O)C[C@@H](O)CC(=O)O[C@H]1C)C[C@H](O)[C@H]2C(=O)O", "note": "[Prestw-410]", "pThr231Tau/total Tau ratio Z-score": "1.77 ± 0.058"},
      {"smiles": "CO[C@@]1(NC(=O)CSCC#N)C(=O)N2C(C(=O)O)=C(CSc3nnnn3C)CS[C@@H]21", "note": "[Prestw-700]", "pThr231Tau/total Tau ratio Z-score": "0.311 ± 0.53"}
    ]}
  ]
}
